Read-outs that look alike come from different tables or passages of the source. Some of these results come from one statement about several compounds together.
System: HCT116 cells
Test: Hypoxic cancer cell survival assay, normoxic vs hypoxic (CellTiter-Glo)
Type: cell-based
Details: 72 hrs, listed as 5 m, read-out: Absolute IC50
Protocol: HCT116 cells were cultured in an atmosphere of 37° C., 5% CO2, 95% humidity, and with either 1% O2 (hypoxic) or 20% O2 (normoxic). No antibiotics were used in the cell culturing. HeLa cells were grown in parallel and samples were taken after 48 h and 72 h to confirm Hypoxia-inducible factor-1α (HIF-1α) expression by western blot.
HCT116 cells were then seeded on 6-well plates and incubated at 37° C., 5% CO2, and 95% humidity overnight. Cells previously cultured under hypoxic conditions were again incubated with 1% O2, and cells previously cultured under normoxic conditions were again incubated with 20% O2.
Hypoxic and normoxic cells were then incubated for 72 hrs in humidified incubator at 37° C., 5% CO2, 95% humidity, and either 1% O2 (hypoxic) or 20% O2 (normoxic) with 5 m, AA6, metformin, or cisplatin at concentrations ranging from 1 mM-50 nM. Each condition was done in triplicate, and the structures of the compounds were not known to the experimenters. After the incubation, cells were lysed with CellTiter-Glo® Luminescent Cell Viability Assay reagent (Promega) and luminescence was read using an EnVision plate reader (PerkinElmer). Cell viability was plotted with GraphPad Prism version 5 and the IC50 was calculated for each compound with each cell line. The graphical curves were fitted using a nonlinear regression model with a sigmoidal dose response.

N/C(=N\C(=O)c1nc(Cl)c(NCc2ccc(I)cc2)nc1N)NCCCCc1ccccc1 [5m, (E)-3-amino-N-(amino((4-phenylbutyl)amino)methylene)-6-chloro-5-((4-iodobenzyl)amino)pyrazine-2-carboxamide]
IC50 (HCT116, hypoxic conditions (1% O2)): < 6 µM
IC50 (HCT116, normoxic conditions (20% O2)): < 6 µM
